Experimental data as given in paper doi:10.1101/2024.08.22.609269.
Results are given in words; binding and its absence hold for the method and conditions named. Binding seen in cells or lysates may run through a third protein. Some binding calls cover weakened binding; strength is not graded here. Values belong to the molecule of their own block, whether it stands above or below them.

The chains behind the UniProt entries cited, without tags or fusion partners. Residues count along the entry.
UniProt P35968, residues 20-1356: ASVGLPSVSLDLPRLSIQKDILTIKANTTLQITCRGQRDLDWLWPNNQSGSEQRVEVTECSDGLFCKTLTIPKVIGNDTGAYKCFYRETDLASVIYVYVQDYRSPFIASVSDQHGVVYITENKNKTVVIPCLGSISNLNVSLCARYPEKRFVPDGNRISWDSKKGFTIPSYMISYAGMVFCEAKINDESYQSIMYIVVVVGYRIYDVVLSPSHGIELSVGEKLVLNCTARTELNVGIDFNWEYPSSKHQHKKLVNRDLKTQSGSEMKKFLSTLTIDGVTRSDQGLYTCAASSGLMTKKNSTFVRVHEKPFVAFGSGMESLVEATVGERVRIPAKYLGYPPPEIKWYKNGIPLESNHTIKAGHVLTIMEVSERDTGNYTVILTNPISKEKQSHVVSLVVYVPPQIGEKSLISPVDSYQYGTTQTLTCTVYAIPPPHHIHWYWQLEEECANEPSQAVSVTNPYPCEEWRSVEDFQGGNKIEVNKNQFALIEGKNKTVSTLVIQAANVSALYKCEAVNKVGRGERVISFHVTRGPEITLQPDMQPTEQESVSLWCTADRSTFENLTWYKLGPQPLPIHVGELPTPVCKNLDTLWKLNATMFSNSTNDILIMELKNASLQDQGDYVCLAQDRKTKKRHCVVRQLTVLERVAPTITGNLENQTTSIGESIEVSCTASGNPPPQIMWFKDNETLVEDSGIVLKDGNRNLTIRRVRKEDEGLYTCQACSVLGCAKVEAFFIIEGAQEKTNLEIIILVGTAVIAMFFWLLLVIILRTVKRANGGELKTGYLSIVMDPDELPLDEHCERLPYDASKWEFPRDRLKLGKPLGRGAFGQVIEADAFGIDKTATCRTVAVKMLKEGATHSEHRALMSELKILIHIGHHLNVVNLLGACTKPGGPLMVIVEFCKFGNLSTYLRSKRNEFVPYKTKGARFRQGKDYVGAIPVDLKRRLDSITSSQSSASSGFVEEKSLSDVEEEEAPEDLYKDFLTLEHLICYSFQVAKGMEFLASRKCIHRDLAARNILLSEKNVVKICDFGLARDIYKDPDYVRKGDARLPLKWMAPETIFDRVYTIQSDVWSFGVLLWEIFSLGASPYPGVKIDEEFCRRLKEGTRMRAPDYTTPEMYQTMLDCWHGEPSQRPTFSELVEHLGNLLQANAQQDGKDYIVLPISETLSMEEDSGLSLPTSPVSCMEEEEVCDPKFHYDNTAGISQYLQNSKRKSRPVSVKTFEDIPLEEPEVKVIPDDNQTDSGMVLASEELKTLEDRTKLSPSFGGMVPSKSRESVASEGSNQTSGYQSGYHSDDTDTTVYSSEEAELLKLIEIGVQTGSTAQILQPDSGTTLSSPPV

Columns and labels:
[1] = target: T1, FITC-traC synthetic peptide (human); test: co-IP
T1 sequence (peptide, [FITC][Ahx] on the N-terminus; C-terminal [COOH]): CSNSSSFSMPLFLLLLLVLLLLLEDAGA

[2] = target: VEGFR2, endogenous in HUVEC (human (endogenous in HUVEC)) (UniProt P35968); test: co-IP

binding [1]: no binding
Molecule: PDGFRβ (platelet-derived growth factor receptor beta), endogenous in HUVEC (from UniProt P09619 33-1106)

binding [1]: binds
Molecule: VEGFR2, endogenous in HUVEC (from UniProt P35968 20-1356) (receptor)

binding [2]: binds
B1: T cell protein tyrosine phosphatase (TCPTP), endogenous in HUVEC (enzyme, UniProt P17706 1-415)
chain: MPTTIEREFEELDTQRRWQPLYLEIRNESHDYPHRVAKFPENRNRNRYRDVSPYDHSRVKLQNAENDYINASLVDIEEAQRSYILTQGPLPNTCCHFWLMVWQQKTKAVVMLNRIVEKESVKCAQYWPTDDQEMLFKETGFSVKLLSEDVKSYYTVHLLQLENINSGETRTISHFHYTTWPDFGVPESPASFLNFLFKVRESGSLNPDHGPAVIHCSAGIGRSGTFSLVDTCLVLMEKGDDINIKQVLLNMRKYRMGLIQTPDQLRFSYMAIIEGAKCIKGDSSIQKRWKELSKEDLSPAFDHSPNKIMTEKYNGNRIGLEEEKLTGDRCTGLSSKMQDTMEENSESALRKRIREDRKATTAQKVQQMKQRLNENERKRKRWLYWQPILTKMGFMSVILVGAFVGWTLFFQQNAL
